Measured values: doi:10.1101/2021.09.20.461090
These are yes or no findings as the source states them, for the method shown. Some entries that bind do so weakly or less than the wild type.

Target: P22 phage tailspike protein (P22 phage) (UniProt P12528)
Experiment: SDS-PAGE after heating

Substance: P22 phage tailspike protein (from UniProt P12528 1-667)
- binding: binds
